Results taken from publication PMC9293640, “Insights into the structural dynamics and helicase-catalyzed unfolding of plant RNA G-quadruplexes”.
Construct, isoform or probe ends are uncertain for at least one entry. For part of these data: No signal at the amounts used counts as a negative. For part of these data: Where cells or extracts were used, other partners may take part. For part of these data: Tags and fusion partners may be left off the protein sequences shown. For part of these data: At least one verdict rests on a figure or table, not on a statement of the authors.

By UniProt entry, the sequences of proteins in these tests, tags left out. Residues count along the entry.
UniProt P41376, 2-412: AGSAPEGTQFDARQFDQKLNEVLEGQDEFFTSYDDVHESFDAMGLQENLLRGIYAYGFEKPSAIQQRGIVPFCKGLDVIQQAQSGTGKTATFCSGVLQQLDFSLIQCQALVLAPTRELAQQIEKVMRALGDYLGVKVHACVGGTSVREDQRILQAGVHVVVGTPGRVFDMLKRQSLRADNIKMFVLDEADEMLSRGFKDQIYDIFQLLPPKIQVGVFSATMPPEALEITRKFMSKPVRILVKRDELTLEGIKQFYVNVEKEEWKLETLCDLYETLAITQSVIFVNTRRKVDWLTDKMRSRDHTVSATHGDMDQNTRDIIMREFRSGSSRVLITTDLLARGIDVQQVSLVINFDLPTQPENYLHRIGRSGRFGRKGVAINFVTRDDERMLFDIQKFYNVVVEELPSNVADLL
UniProt P41376, whole entry: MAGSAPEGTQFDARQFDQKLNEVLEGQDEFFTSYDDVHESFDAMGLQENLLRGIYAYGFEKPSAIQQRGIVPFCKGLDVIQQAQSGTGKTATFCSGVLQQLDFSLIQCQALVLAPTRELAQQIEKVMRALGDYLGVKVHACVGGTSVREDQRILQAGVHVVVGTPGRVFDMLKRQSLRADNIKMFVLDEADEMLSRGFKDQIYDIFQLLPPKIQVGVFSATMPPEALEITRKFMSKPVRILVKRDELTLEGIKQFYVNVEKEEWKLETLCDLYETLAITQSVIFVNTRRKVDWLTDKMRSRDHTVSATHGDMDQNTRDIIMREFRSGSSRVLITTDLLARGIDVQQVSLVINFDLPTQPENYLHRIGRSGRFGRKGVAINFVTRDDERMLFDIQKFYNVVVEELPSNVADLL

Tests used:
[1] = molecular target: T1, RH3 (lysate) (Arabidopsis thaliana) (UniProt Q8L7S8); assay: pull-down; conditions: LC-MS/MS, compared with U15 ssRNA; pull-down: 20 mM Tris-HCl pH 7.5, 300 mM KCl, 0.1% Tween-20, 2 mM EDTA, RNase inhibitor, 4 °C 4 h; protein in an extract; label: 3'-biotin
T1 sequence (looked up, limits assumed): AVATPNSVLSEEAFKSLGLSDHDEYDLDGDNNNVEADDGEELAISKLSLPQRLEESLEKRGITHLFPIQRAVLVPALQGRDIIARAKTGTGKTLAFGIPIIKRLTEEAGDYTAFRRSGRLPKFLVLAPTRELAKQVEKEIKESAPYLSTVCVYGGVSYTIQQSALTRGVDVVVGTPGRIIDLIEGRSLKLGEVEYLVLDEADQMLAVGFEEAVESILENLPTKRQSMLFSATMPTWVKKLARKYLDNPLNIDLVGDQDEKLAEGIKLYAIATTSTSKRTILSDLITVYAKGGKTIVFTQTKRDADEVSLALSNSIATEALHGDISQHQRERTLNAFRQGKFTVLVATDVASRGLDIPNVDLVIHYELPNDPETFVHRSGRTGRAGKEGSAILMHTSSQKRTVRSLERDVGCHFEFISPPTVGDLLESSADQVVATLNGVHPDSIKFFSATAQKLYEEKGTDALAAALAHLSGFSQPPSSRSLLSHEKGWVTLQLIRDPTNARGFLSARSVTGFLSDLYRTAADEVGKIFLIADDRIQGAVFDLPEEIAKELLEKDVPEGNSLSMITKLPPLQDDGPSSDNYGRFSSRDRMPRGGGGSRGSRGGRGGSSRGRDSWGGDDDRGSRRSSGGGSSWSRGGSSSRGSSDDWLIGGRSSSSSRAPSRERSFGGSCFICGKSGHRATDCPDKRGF

[2] = molecular target: eIF4A (lysate) (Arabidopsis thaliana) (UniProt P41376); assay: pull-down; conditions: LC-MS/MS, compared with U15 ssRNA; pull-down: 20 mM Tris-HCl pH 7.5, 300 mM KCl, 0.1% Tween-20, 2 mM EDTA, RNase inhibitor, 4 °C 4 h; protein in an extract; label: 3'-biotin
[3] = molecular target: T2, RH53 (lysate) (Arabidopsis thaliana) (UniProt Q9LUW5); assay: pull-down; conditions: LC-MS/MS, compared with U15 ssRNA; pull-down: 20 mM Tris-HCl pH 7.5, 300 mM KCl, 0.1% Tween-20, 2 mM EDTA, RNase inhibitor, 4 °C 4 h; protein in an extract; label: 3'-biotin
T2 sequence (looked up, limits assumed): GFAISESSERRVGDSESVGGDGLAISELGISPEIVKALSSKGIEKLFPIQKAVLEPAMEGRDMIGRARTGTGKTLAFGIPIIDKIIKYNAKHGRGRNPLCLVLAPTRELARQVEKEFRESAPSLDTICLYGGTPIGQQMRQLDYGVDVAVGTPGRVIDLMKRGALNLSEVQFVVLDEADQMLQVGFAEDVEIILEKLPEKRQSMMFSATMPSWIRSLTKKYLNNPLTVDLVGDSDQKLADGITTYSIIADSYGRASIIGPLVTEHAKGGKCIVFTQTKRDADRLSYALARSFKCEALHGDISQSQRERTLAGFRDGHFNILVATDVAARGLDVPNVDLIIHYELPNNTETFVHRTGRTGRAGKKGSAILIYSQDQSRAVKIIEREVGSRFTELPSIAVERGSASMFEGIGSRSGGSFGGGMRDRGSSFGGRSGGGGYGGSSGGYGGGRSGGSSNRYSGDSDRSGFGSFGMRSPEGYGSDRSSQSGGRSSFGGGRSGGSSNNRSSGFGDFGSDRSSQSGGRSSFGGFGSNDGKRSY

[4] = molecular target: T3, DExH1 (lysate) (Arabidopsis thaliana) (UniProt F4ILR7); assay: pull-down; conditions: LC-MS/MS, compared with U15 ssRNA; pull-down: 20 mM Tris-HCl pH 7.5, 300 mM KCl, 0.1% Tween-20, 2 mM EDTA, RNase inhibitor, 4 °C 4 h; protein in an extract; label: 3'-biotin
T3 sequence (looked up, limits assumed): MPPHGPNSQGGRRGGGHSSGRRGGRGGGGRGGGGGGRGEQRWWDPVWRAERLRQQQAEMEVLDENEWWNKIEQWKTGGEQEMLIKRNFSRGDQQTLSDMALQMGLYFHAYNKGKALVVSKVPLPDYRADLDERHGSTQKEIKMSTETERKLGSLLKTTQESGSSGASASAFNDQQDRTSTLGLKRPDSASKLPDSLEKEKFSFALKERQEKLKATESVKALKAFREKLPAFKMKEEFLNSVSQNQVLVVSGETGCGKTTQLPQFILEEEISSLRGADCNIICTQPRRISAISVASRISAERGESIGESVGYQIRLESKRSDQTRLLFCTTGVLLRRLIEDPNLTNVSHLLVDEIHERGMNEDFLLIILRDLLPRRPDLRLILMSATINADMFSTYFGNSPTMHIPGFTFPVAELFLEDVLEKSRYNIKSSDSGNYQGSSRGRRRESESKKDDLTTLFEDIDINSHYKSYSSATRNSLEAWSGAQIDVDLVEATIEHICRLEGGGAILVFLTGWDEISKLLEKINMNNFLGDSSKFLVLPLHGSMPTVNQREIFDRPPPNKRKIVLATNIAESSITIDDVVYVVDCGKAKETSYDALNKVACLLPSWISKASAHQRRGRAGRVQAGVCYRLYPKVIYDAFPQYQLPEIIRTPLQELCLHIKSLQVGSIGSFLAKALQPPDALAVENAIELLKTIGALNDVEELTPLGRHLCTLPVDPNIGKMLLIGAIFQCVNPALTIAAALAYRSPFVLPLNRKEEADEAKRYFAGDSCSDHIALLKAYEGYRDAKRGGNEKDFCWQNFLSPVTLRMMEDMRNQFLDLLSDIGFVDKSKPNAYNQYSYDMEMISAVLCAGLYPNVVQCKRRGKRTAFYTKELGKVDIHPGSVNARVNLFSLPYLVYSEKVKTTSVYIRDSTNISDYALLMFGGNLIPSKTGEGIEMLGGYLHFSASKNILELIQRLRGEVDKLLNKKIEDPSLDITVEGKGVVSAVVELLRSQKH

[5] = molecular target: T4, DExH15 (lysate) (Arabidopsis thaliana) (UniProt B9DFG3); assay: pull-down; conditions: LC-MS/MS, compared with U15 ssRNA; pull-down: 20 mM Tris-HCl pH 7.5, 300 mM KCl, 0.1% Tween-20, 2 mM EDTA, RNase inhibitor, 4 °C 4 h; protein in an extract; label: 3'-biotin
T4 sequence (looked up, limits assumed): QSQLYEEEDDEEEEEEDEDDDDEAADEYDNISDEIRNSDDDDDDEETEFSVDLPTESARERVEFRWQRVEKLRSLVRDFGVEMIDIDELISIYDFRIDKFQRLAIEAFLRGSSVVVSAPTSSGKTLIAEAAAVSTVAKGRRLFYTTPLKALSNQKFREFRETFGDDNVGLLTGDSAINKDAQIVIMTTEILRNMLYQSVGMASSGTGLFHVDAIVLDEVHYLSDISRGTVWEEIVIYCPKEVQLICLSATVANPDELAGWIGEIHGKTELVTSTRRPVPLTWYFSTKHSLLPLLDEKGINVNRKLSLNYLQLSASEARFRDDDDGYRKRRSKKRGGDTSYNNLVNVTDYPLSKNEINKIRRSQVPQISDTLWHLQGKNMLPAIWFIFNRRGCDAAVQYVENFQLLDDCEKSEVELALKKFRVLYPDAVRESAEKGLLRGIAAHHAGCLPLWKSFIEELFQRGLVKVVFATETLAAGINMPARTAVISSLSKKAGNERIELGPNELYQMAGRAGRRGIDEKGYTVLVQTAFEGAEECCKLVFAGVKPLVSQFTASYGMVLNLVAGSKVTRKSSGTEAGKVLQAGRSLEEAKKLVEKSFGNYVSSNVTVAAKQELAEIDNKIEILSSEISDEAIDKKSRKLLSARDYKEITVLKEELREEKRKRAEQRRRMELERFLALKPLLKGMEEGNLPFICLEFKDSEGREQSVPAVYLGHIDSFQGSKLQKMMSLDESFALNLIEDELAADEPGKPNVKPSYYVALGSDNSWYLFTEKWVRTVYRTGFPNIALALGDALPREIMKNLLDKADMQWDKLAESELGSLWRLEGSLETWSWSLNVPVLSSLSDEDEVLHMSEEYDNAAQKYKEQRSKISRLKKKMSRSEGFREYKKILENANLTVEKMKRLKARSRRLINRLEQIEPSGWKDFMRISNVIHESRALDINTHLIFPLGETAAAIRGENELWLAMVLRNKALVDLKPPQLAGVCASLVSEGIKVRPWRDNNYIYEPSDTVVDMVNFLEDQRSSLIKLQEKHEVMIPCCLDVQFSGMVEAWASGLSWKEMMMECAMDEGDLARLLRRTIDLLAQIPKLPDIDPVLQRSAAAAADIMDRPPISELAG

[6] = molecular target: eIF4A (eIF4A1) (Arabidopsis thaliana) (UniProt P41376); assay: MST; conditions: EC50 only in figure; MST: 20 nM FAM-RNA; recombinant protein; residues 1-412; protein details: 6xHis-SUMO removed; label: 3'-FAM
[7] = molecular target: T5, RH53 (Arabidopsis thaliana) (UniProt Q9LUW5); assay: MST; conditions: EC50 only in figure; MST: 20 nM FAM-RNA; recombinant protein; residues 1-616; protein details: N-terminal 6xHis-SUMO (retained); label: 3'-FAM
T5 sequence (looked up): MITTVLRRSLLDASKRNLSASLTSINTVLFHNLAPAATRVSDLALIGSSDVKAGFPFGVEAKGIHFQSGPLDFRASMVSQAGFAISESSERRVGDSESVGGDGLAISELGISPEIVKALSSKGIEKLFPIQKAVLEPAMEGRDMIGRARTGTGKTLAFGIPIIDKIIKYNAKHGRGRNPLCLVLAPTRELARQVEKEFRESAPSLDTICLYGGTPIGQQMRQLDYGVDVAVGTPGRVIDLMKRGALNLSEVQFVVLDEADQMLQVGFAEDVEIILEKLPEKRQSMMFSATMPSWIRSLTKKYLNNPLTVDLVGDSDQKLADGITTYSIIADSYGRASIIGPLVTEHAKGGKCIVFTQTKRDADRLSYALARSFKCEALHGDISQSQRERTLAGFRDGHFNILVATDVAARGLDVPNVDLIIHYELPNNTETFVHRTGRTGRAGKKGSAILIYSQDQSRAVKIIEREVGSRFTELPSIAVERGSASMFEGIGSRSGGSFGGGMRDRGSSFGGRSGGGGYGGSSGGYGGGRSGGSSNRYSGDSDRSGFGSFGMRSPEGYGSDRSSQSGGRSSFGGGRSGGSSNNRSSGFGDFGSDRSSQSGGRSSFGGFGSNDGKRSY

[8] = molecular target: T6, RH3 (Arabidopsis thaliana) (UniProt Q8L7S8); assay: MST; conditions: EC50 only in figure; MST: 20 nM FAM-RNA; recombinant protein; residues 1-748; protein details: N-terminal 6xHis-SUMO (retained); label: 3'-FAM
T6 sequence (looked up): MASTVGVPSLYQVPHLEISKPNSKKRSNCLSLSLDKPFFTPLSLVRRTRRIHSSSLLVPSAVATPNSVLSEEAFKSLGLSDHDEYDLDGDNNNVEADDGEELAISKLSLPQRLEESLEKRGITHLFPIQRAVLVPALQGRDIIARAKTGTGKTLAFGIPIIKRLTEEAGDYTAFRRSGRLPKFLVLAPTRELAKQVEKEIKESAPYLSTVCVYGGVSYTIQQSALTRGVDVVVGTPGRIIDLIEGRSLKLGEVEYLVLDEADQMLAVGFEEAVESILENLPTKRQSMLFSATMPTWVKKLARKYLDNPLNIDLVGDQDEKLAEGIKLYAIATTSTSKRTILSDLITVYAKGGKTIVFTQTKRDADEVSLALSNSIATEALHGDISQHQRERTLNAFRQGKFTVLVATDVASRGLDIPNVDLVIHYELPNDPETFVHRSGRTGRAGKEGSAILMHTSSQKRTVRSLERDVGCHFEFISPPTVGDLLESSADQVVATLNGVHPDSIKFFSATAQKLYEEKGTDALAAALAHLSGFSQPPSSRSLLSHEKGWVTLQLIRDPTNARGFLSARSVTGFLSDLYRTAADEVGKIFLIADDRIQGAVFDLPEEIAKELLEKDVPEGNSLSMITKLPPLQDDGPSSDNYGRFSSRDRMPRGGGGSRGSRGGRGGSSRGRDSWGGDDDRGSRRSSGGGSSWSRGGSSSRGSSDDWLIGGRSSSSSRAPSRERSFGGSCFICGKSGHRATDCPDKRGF

[9] = tested on: SUMO tag; assay: MST; conditions: tag-only control; MST: 20 nM FAM-RNA; recombinant protein; label: 3'-FAM

Sequence | binding result [1] | binding result [2] | binding result [3] | binding result [4] | binding result [5] | binding result [6] | binding result [7] | binding result [8] | binding result [9]
GAGGGAGGGAAGGGGAAGGGGUAAUUUUUUUUUUUUUUU [G4RNA15Ubiotin] | binds | binds | binds | binds | binds | – | – | – | –
GGGAGGGAAGGGGAAGGGGUUUUUUUUUUUUUUU [G4S (3' tail rG4)] | – | – | – | – | – | binds | binds | binds | no binding
